Source: PubChem BioAssay AID330 (DTP/NCI, 2004)
The list shows only some results of the screen, not a fair sample: it gathers tests that were run many times, whatever their T/C, doses with no T/C, and many T/C values between a quarter and a half above the control. Other doses and runs of a compound stand elsewhere. T/C is the treated group as % of the vehicle group. Some doses have a count of surviving animals in place of a T/C: the source files T/C as zero there, which appears to mark a toxic dose or a test without result, not a measured value. Some doses without a T/C left all or most animals alive at the check, yet need not have been tolerated: survival well below the control is almost never listed, so the zero probably covers shortened survival too. Counts of survivors are from the toxicity check (mostly the fifth day) where no day follows; animals may have died later. Schedule codes are those of the source, read here as Q, the interval in days (D) or hours (H), X, the number of doses. For survival time, the PubChem record calls one and a half times the control and up active, and a quarter to a half above the control has no call in these data; cut-offs in other NCI protocols can differ. Some T/C values are followed by the survivors on the day toxicity was checked, most often the fifth; where none is given, no animal had died by that day. Some entries hold several experiments; the results are listed from low to high. Signs of the kind (2×) give the number of equal values in this list. Some schedule codes hold Z or #, which are not explained here.

Test system: P388 leukemia ip, CD2F1 mice, survival T/C
Experiment: NCI In Vivo Anticancer Drug Screen. Data for tumor model P388 Leukemia (intraperitoneal) in CD2F1 (CDF1) mice
Conditions: T/C endpoint: median survival time, higher T/C = longer survival
[1] = dose: 0.1 mg/kg/injection, schedule: Q01DX009 (ip), vehicle: distilled water + Tween-80

## COC1=C(N)C(=O)c2nc(-c3nc(C(=O)O)c(C)c(-c4ccc(OC)c(OC)c4O)c3N)ccc2C1=O
dose: 0.02 mg/kg/injection, schedule: Q01DX009 (ip), vehicle: other, evaluated on day 5
  T/C: 101 and 147 % of control
dose: 0.02 mg/kg/injection, schedule: Q01DX009 (ip), vehicle: other, evaluated on day 23
  T/C: 148 % of control
dose: 0.02 mg/kg/injection, schedule: Q01DX009 (ip), vehicle: other, evaluated on day 25
  T/C: 101 % of control
dose: 0.02 mg/kg/injection, schedule: Q01DX009 (ip), vehicle: other, evaluated on day 30
  T/C: 101 % of control [7 of 8 alive]
dose: 0.02 mg/kg/injection, schedule: Q01DX009 (ip), vehicle: other, evaluated on day 35
  T/C: 120 % of control
dose: 0.02 mg/kg/injection, schedule: Q## X008 (ip), vehicle: other
  T/C: 130 % of control [8 of 10 alive]
dose: 0.03 mg/kg/injection, schedule: Q01DX009 (ip), vehicle: water
  T/C: 131 % of control
dose: 0.04 mg/kg/injection, schedule: Q01DX009 (ip), vehicle: other, evaluated on day 5
  T/C: 110 and 130 % of control
dose: 0.04 mg/kg/injection, schedule: Q01DX009 (ip), vehicle: other, evaluated on day 23
  T/C: 130 % of control
dose: 0.04 mg/kg/injection, schedule: Q01DX009 (ip), vehicle: other, evaluated on day 25
  T/C: 110 % of control
dose: 0.04 mg/kg/injection, schedule: Q01DX009 (ip), vehicle: other, evaluated on day 28
  T/C: 113 % of control
dose: 0.04 mg/kg/injection, schedule: Q01DX009 (ip), vehicle: other, evaluated on day 30
  T/C: 123 % of control
dose: 0.05 mg/kg/injection, schedule: Q01DX009 (ip), vehicle: distilled water + Tween-80
  T/C: 120, 121, 133 (2×), 137, 148 % of control
dose: 0.05 mg/kg/injection, schedule: Q01DX009 (ip), vehicle: other, evaluated on day 5
  T/C: 116 and 133 % of control
dose: 0.05 mg/kg/injection, schedule: Q01DX009 (ip), vehicle: other, evaluated on day 22
  T/C: 116 % of control
dose: 0.05 mg/kg/injection, schedule: Q01DX009 (ip), vehicle: other, evaluated on day 25
  T/C: 133 % of control
dose: 0.05 mg/kg/injection, schedule: Q01DX009 (ip), vehicle: other, evaluated on day 28
  T/C: 130 % of control
dose: 0.05 mg/kg/injection, schedule: Q01DX009 (ip), vehicle: other, evaluated on day 30
  T/C: 115, 119 (2×), 121, 122, 123, 137, 149 % of control
dose: 0.05 mg/kg/injection, schedule: Q01DX009 (ip), vehicle: other, evaluated on day 35
  T/C: 120 % of control
dose: 0.05 mg/kg/injection, schedule: Q01DX009 (ip), vehicle: other, evaluated on day 45
  T/C: 148 % of control
dose: 0.05 mg/kg/injection, schedule: Q01DX009 (ip), vehicle: water
  T/C: 104, 117, 120, 122 (2×), 132 [5 of 6 alive], 135, 137, 142 % of control
dose: 0.06 mg/kg/injection, schedule: Q01DX009 (ip), vehicle: dioxane
  T/C: 126 % of control
dose: 0.06 mg/kg/injection, schedule: Q01DX009 (ip), vehicle: other, evaluated on day 5
  T/C: 135 % of control
dose: 0.06 mg/kg/injection, schedule: Q01DX009 (ip), vehicle: other, evaluated on day 25
  T/C: 135 % of control
dose: 0.06 mg/kg/injection, schedule: Q01DX009 (ip), vehicle: other, evaluated on day 28
  T/C: 126 % of control
dose: 0.06 mg/kg/injection, schedule: Q01DX009 (ip), vehicle: other, evaluated on day 30
  T/C: 124 % of control
dose: 0.08 mg/kg/injection, schedule: Q01DX009 (ip), vehicle: distilled water + Tween-80
  T/C: 130 and 133 % of control
dose: 0.08 mg/kg/injection, schedule: Q01DX009 (ip), vehicle: other, evaluated on day 5
  T/C: 140 % of control
dose: 0.08 mg/kg/injection, schedule: Q01DX009 (ip), vehicle: other, evaluated on day 23
  T/C: 140 % of control
dose: 0.08 mg/kg/injection, schedule: Q01DX009 (ip), vehicle: other, evaluated on day 28
  T/C: 117 % of control
dose: 0.08 mg/kg/injection, schedule: Q01DX009 (ip), vehicle: other, evaluated on day 30
  T/C: 110 % of control
dose: 0.08 mg/kg/injection, schedule: Q01DX009 (ip), vehicle: saline with Tween-80
  T/C: 140 % of control
dose: 0.09 mg/kg/injection, schedule: Q01DX009 (ip), vehicle: dioxane
  T/C: 129 % of control
[1]
  T/C: 100, 113, 127, 128, 134 % of control
  survivor count: 6 of 6
dose: 0.1 mg/kg/injection, schedule: Q01DX009 (ip), vehicle: other, evaluated on day 5
  T/C: 112 % of control
dose: 0.1 mg/kg/injection, schedule: Q01DX009 (ip), vehicle: other, evaluated on day 22
  T/C: 112 % of control [7 of 8 alive]
dose: 0.1 mg/kg/injection, schedule: Q01DX009 (ip), vehicle: other, evaluated on day 28
  T/C: 106 % of control
